IC50 data for one molecule are collected here from ChEMBL document CHEMBL4842372, “Discovery of ARD-2585 as an Exceptionally Potent and Orally Active PROTAC Degrader of Androgen Receptor for the Treatment of Advanced Prostate Cancer” (J Med Chem, 2021).

The test system of the assay is LNCaP. The assay can be described thus: Growth inhibition of human LNCaP cells carrying AR T878A mutant assessed as cell viability by WST-8 assay. The format is functional, cell-based. For orientation: Formazan colour is commonly taken as a measure of viable cells.

On to `CNC(=O)c1ccc(N2C(=S)N(c3ccc(C#N)c(C(F)(F)F)c3)C(=O)C2(C)C)cc1F` [ENZALUTAMIDE], for which the IC50 (in general, the point on the concentration scale where inhibition reaches its midpoint) is 133 nM.
